Values from PubChem BioAssay AID1259308 (NCATS, 2017)
The whole screen tested about 59,000 reagents; below is a random part of them. About 1,510 of all reagents (2.6%) were called active. 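Calls use total luciferase alone and ignore viability, so some active siRNAs may act by altering cell number.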

- Test: 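Knock-downs that increase output of a recombinant reporter protein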 (primary screen)
- Cell system: human HEK293 embryonic kidney cells stably expressing firefly luciferase (HEK-CMV-Luc2-Hygro)
- Reagent: single siRNA against human genes, 0.8 pmol siRNA per well
- Duration: 72 h
- Detection: 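Reporter luminescence and viable-cell signal on separate replicate plates, given as percent of non-targeting control and median/MAD z-scores, plus per-cell luciferase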
- Direction: total luciferase, z-score and total luciferase, % of control: higher = more reporter protein produced; luciferase per cell, z-score: higher = more reporter output per viable cell; viable cells, % of control: higher = more viable cells
- Call rule: 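Active when the median/MAD z-score for overall luciferase is greater than 3; a gene was taken forward for validation with new siRNAs if at least two of its three siRNAs passed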
- Meaning of the calls: active = raised luciferase; inactive = no rise

| gene | PubChem SID | total luciferase, z-score | total luciferase, % of control | luciferase per cell, z-score | viable cells, % of control | activity call |
| --- | --- | --- | --- | --- | --- | --- |
| CNOT11 | SID160743812 | 0.132 | 84.5 | 0.0483 | 93.2 | inactive |
| CNOT11 | SID160743813 | -0.549 | 71 | -0.773 | 97.2 | inactive |
| CNOT11 | SID160743814 | -0.637 | 69.2 | -0.0245 | 77.8 | inactive |
| CAMK1 | SID160720270 | -1.53 | 51.4 | -1.4 | 83.1 | inactive |
| CAMK1 | SID160720271 | -0.203 | 77.9 | -0.843 | 109 | inactive |
| CAMK1 | SID160720272 | 0.356 | 89 | -0.0682 | 101 | inactive |
| PTPN11P4 | SID160766728 | -0.0896 | 80.1 | 0.168 | 85.6 | inactive |
| PTPN11P4 | SID160766729 | -0.87 | 64.6 | -0.411 | 80.4 | inactive |
| PTPN11P4 | SID160766730 | -0.0379 | 81.1 | -0.226 | 96.2 | inactive |
| KRTAP19-8 | SID160726634 | 0.538 | 92.6 | 0.824 | 83.3 | inactive |
| KRTAP19-8 | SID160726635 | -0.429 | 73.3 | -0.245 | 87.4 | inactive |
| KRTAP19-8 | SID160771681 | -2.08 | 40.4 | -1.52 | 67.4 | inactive |
| GPRC5B | SID160741242 | -0.128 | 79.3 | -0.103 | 91.1 | inactive |
| GPRC5B | SID160741243 | 4.73 | 176 | 2.71 | 96.5 | active |
| GPRC5B | SID160741244 | 0.42 | 90.2 | 0.435 | 89.9 | inactive |
| LY6G6D | SID160746929 | 1.34 | 108 | 1.9 | 73.5 | inactive |
| LY6G6D | SID160746930 | 0.509 | 92 | 0.821 | 82.8 | inactive |
| LY6G6D | SID160746931 | -0.809 | 65.8 | -0.602 | 86.2 | inactive |
| LITATS1 | SID160734349 | -0.0305 | 81.3 | -0.723 | 110 | inactive |
| LITATS1 | SID160771796 | -1.33 | 55.4 | -0.338 | 67.6 | inactive |
| LITATS1 | SID160771797 | 1.15 | 105 | 1.5 | 78.9 | inactive |
| ZYX | SID160719349 | 2.59 | 133 | 1.72 | 94.8 | inactive |
| ZYX | SID160719350 | 0.55 | 92.8 | 0.926 | 81.3 | inactive |
| ZYX | SID160731902 | -0.638 | 69.2 | -0.888 | 97.7 | inactive |

Records listed so far whose target name starts with K or k:
| gene | PubChem SID | total luciferase, z-score | total luciferase, % of control | luciferase per cell, z-score | viable cells, % of control | activity call |
| --- | --- | --- | --- | --- | --- | --- |
| KRTAP19-8 | SID160726634 | 0.538 | 92.6 | 0.824 | 83.3 | inactive |
| KRTAP19-8 | SID160726635 | -0.429 | 73.3 | -0.245 | 87.4 | inactive |
| KRTAP19-8 | SID160771681 | -2.08 | 40.4 | -1.52 | 67.4 | inactive |
